From article doi:10.1101/2022.12.14.520480
No constants are given. Whether binding was seen depends on the method and setting. In cells and extracts the contact can be indirect. A yes stands for co-enrichment or nearness to the bait. Other partners may have been found.

T1: LAMP1-APEX2 (UniProt P11279)
T1 sequence: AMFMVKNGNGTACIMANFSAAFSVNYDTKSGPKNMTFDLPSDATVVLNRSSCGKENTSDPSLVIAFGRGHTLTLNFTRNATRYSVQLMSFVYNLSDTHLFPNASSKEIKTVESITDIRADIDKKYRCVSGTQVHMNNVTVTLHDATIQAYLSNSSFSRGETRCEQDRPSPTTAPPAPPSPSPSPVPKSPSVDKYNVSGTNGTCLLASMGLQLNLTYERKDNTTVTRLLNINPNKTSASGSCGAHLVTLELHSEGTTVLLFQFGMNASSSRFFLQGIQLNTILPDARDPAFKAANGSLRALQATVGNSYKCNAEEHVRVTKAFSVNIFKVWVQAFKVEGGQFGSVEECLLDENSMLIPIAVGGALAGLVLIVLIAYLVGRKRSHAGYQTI


Target: T1, LAMP1-APEX2
Assay: proximity labelling

Row | binding | Binder
1 | binds | BLOC1S1 (protein, UniProt P78537 1-153) MAPGSRGERSSFRSRRGPGVPSPQPDVTMLSRLLKEHQAKQNERKELQEKRRREAITAATCLTEALVDHLNVGVAQAYMNQRKLDHEVKTLQVQAAQFAKQTGQWIGMVENFNQALKEIGDVENWARSIELDMRTIATALEYVYKGQLQSAPS
2 | binds | TSC1 (protein, UniProt Q92574 1-1164) MAQQANVGELLAMLDSPMLGVRDDVTAVFKENLNSDRGPMLVNTLVDYYLETSSQPALHILTTLQEPHDKHLLDRINEYVGKAATRLSILSLLGHVIRLQPSWKHKLSQAPLLPSLLKCLKMDTDVVVLTTGVLVLITMLPMIPQSGKQHLLDFFDIFGRLSSWCLKKPGHVAEVYLVHLHASVYALFHRLYGMYPCNFVSFLRSHYSMKENLETFEEVVKPMMEHVRIHPELVTGSKDHELDPRRWKRLETHDVVIECAKISLDPTEASYEDGYSVSHQISARFPHRSADVTTSPYADTQNSYGCATSTPYSTSRLMLLNMPGQLPQTLSSPSTRLITEPPQATLWSPSMVCGMTTPPTSPGNVPPDLSHPYSKVFGTTAGGKGTPLGTPATSPPPAPLCHSDDYVHISLPQATVTPPRKEERMDSARPCLHRQHHLLNDRGSEEPPGSKGSVTLSDLPGFLGDLASEEDSIEKDKEEAAISRELSEITTAEAEPVVPRGGFDSPFYRDSLPGSQRKTHSAASSSQGASVNPEPLHSSLDKLGPDTPKQAFTPIDLPCGSADESPAGDRECQTSLETSIFTPSPCKIPPPTRVGFGSGQPPPYDHLFEVALPKTAHHFVIRKTEELLKKAKGNTEEDGVPSTSPMEVLDRLIQQGADAHSKELNKLPLPSKSVDWTHFGGSPPSDEIRTLRDQLLLLHNQLLYERFKRQQHALRNRRLLRKVIKAAALEEHNAAMKDQLKLQEKDIQMWKVSLQKEQARYNQLQEQRDTMVTKLHSQIRQLQHDREEFYNQSQELQTKLEDCRNMIAELRIELKKANNKVCHTELLLSQVSQKLSNSESVQQQMEFLNRQLLVLGEVNELYLEQLQNKHSDTTKEVEMMKAAYRKELEKNRSHVLQQTQRLDTSQKRILELESHLAKKDHLLLEQKKYLEDVKLQARGQLQAAESRYEAQKRITQVFELEILDLYGRLEKDGLLKKLEEEKAEAAEAAEERLDCCNDGCSDSMVGHNEEASGHNGETKTPRPSSARGSSGSRGGGGSSSSSSELSTPEKPPHQRAGPFSSRWETTMGEASASIPTTVGSLPSSKSFLGMKARELFRNKSESQCDEDGMTSSLSESLKTELGKDLGVEAKIPLNLDGPHPSPPTPDSVGQLHIMDYNETHHEHS
